Results taken from PubChem BioAssay AID206 (DTP/NCI, 2004).
The list shows only some results of the screen, not a fair sample: it is rich in T/C values a quarter to a half above the control, in often repeated tests (any T/C) and in doses without a T/C. Other doses and runs of a compound stand elsewhere. T/C is the treated group as % of the vehicle group. Schedule codes are those of the source, read here as Q, the interval in days (D) or hours (H), X, the number of doses. Some entries give survivors of the animals treated and no T/C: the source holds a T/C of zero for them, seemingly a mark for toxic or unscored doses. Counts of survivors are from the toxicity check (mostly the fifth day) where no day follows; animals may have died later. Some doses were run more than once; the results are listed from low to high.

System: nude mice, HT29 intrarenal xenograft, tumor weight T/C
Experiment: NCI In Vivo Anticancer Drug Screen. Data for tumor model HT29;CX-1 Human Adenocarcinoma (MER+) (intrarenal inoculation) in NU/NU Swiss (nude) mice
Settings: T/C endpoint: mean tumor weight change, higher T/C = larger tumour
Summary of the method: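 Endpoint measured as tumor size or survival; ratio reported is treated group over vehicle controls.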

[1] = dose: 1200.0 mg/kg/injection, schedule: Q04DX004 (sc), vehicle: saline with Tween-80
[2] = dose: 1200.0 mg/kg/injection, schedule: Q04DX004 (sc), vehicle: Klucel (hydroxypropylcellulose) (HPC)

`O=C1SC(c2ccccc2)=S=C1c1ccccc1` was tested, and the T/C (dose: 600.0 mg/kg/injection, schedule: Q04DX004 (sc), vehicle: saline with Tween-80, evaluated on day 15) was 126 % of control and the T/C (dose: 2400.0 mg/kg/injection, schedule: Q04DX004 (sc), vehicle: saline with Tween-80, evaluated on day 15) was 145 % of control.
For `CCN(CC)Cc1cc2[nH]c3c4ccc(Cl)cc4ncc3c2cc1OC`, the T/C (dose: 75.0 mg/kg/injection, schedule: Q04DX004 (sc), vehicle: saline with Tween-80, evaluated on day 15) was 130 % of control.
`COc1cc(C(=O)N/N=C/c2cccc([N+](=O)[O-])c2)cc(OC)c1OC` was tested, and the T/C (dose: 300.0 mg/kg/injection, schedule: Q04DX004 (sc), vehicle: saline with Tween-80, evaluated on day 15) was 144 % of control.
In the case of `C[N+](C)(C)c1ncnc2c1ncn2C1CCCO1` (configuration not stated), the T/C (dose: 3.12 mg/kg/injection, schedule: Q01DX010 (sc), vehicle: saline, evaluated on day 11) is reported as 144 % of control.
For `CCCCCCCCCCCCCCCCCC(=O)OCC(=O)OCC(=O)[C@]1(O)Cc2c(O)c3c(c(O)c2[C@@H](OC2CC(N)C(O)C(C)O2)C1)C(=O)c1c(OC)cccc1C3=O` (some centres not stated), the survivor count (dose: 24.0 mg/kg/injection, schedule: Q01DX010 (sc), vehicle: water) was 0 of 3 on day 20 and the survivor count (dose: 60.0 mg/kg/injection, schedule: Q04DX004 (sc), vehicle: water) was 0 of 3 on day 15.
With `CCCN1COC(OCC)C(C)(C)C1` (configuration not stated) the survivor count [1] was 1 of 6 on day 15.
`CN(C)C1C(=O)C(C(=O)NP(=O)(NCCCO)N(CCCl)CCCl)=C(O)C2(O)C(=O)C3=C(O)c4c(O)cccc4C(C)(O)C3CC12` (configuration not stated) was tested, and the survivor count (dose: 300.0 mg/kg/injection, schedule: Q04DX004 (sc), vehicle: saline with Tween-80) was 2 of 6 on day 15, the survivor count (dose: 600.0 mg/kg/injection, schedule: Q04DX004 (sc), vehicle: saline with Tween-80) was 0 of 6 on day 15 and 2 of 6 on day 15 and the survivor count [1] was 0 of 6 on day 15.
With `C[C@H]1C[C@@H]2[C@H]([C@@H](O)C[C@@]3(C)[C@H]2CC[C@]3(O)C(=O)CO)[C@@]2(C)C=CC(=O)C=C12` the survivor count (dose: 400.0 mg/kg/injection, schedule: Q04DX004 (sc), vehicle: Klucel (hydroxypropylcellulose) (HPC)) was 1 of 6 on day 15, the survivor count (dose: 800.0 mg/kg/injection, schedule: Q04DX004 (sc), vehicle: Klucel (hydroxypropylcellulose) (HPC)) was 1 of 6 on day 15 and the survivor count (dose: 1600.0 mg/kg/injection, schedule: Q04DX004 (sc), vehicle: Klucel (hydroxypropylcellulose) (HPC)) was 1 of 6 on day 15.
With `C1CN1c1nc(N2CC2)nc(N2CC2)n1` the T/C (dose: 0.13 mg/kg/injection, schedule: Q01DX010 (sc), vehicle: saline, evaluated on day 20) was 145 % of control, the survivor count (dose: 0.5 mg/kg/injection, schedule: Q01DX010 (sc), vehicle: saline) was 0 of 3 on day 20 and the survivor count (dose: 1.0 mg/kg/injection, schedule: Q01DX010 (sc), vehicle: saline) was 0 of 3 on day 20.
`COc1cccc2c1C(=O)c1c(O)c3c(c(O)c1C2=O)C[C@@](O)(/C(C)=N/NC(=O)c1cccc([N+](=O)[O-])c1)C[C@@H]3OC1CC(N)C(O)C(C)O1` (some centres not stated) was tested, and the survivor count (dose: 32.0 mg/kg/injection, schedule: Q01DX010 (sc), vehicle: water) was 0 of 3 on day 20.
With `O=c1[nH]cnc2n[nH]nc12` the survivor count [2] was 2 of 5 on day 15.
`Cc1cc(Nc2ccc3c(c2)OCO3)c2cc3c(cc2n1)OCO3` was tested, and the survivor count [2] was 2 of 6 on day 15 and the survivor count (dose: 2400.0 mg/kg/injection, schedule: Q04DX004 (sc), vehicle: Klucel (hydroxypropylcellulose) (HPC)) was 3 of 6 on day 15.
With `COC1=NCN=C2SC=C(N)N=C12` the survivor count (dose: 300.0 mg/kg/injection, schedule: Q04DX004 (sc), vehicle: saline) was 0 of 6 on day 15.
`Cc1c2cc[n+](C)cc2c(C)c2c1[nH]c1ccc(O)cc12` was tested, and the survivor count (dose: 5.0 mg/kg/injection, schedule: Q04DX004 (sc), vehicle: water) was 2 of 6 on day 15 and the survivor count (dose: 10.0 mg/kg/injection, schedule: Q04DX004 (sc), vehicle: water) was 0 of 6 on day 15.
In the case of `Cc1c2cc(Cl)c3ccccc3c2c[n+]2ccccc12`, the T/C (dose: 150.0 mg/kg/injection, schedule: Q04DX004 (sc), vehicle: saline with Tween-80, evaluated on day 15) is reported as 130 % of control.
For `O=c1[nH]c(=O)n(C2CC(O)C(CO)O2)cc1C(F)(F)F` (configuration not stated), the survivor count (dose: 800.0 mg/kg/injection, schedule: Q01DX010 (sc), vehicle: saline) was 0 of 3 on day 20.
For `COc1cc([C@@H]2c3cc4c(c(O)c3C[C@H]3COC(=O)[C@@H]32)OCO4)cc(OC)c1O`, the survivor count (dose: 8.0 mg/kg/injection, schedule: Q01DX010 (sc), vehicle: saline) was 0 of 3 on day 11.
